These results are taken from publication PMC7301494.

Chains of the proteins cited; added tags and fusions are not shown. Lines headed by an entry give the natural chain unless they say otherwise; changes in a name come on top.
UniProt Q8ILM5: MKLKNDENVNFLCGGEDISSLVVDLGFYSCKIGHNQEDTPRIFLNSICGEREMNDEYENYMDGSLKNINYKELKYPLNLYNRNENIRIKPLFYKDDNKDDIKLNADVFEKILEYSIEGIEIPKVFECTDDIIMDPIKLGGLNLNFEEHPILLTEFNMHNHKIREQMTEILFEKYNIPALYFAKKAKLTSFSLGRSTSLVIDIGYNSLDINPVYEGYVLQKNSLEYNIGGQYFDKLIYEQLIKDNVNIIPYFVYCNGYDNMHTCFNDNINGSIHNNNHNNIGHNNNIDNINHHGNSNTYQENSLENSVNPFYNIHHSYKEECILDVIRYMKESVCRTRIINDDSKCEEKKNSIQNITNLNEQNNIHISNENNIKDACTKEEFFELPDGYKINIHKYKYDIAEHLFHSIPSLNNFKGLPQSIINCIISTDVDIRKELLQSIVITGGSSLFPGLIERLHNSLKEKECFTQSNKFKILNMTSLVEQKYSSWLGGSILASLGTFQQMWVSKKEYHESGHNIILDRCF
UniProt Q8IBQ9: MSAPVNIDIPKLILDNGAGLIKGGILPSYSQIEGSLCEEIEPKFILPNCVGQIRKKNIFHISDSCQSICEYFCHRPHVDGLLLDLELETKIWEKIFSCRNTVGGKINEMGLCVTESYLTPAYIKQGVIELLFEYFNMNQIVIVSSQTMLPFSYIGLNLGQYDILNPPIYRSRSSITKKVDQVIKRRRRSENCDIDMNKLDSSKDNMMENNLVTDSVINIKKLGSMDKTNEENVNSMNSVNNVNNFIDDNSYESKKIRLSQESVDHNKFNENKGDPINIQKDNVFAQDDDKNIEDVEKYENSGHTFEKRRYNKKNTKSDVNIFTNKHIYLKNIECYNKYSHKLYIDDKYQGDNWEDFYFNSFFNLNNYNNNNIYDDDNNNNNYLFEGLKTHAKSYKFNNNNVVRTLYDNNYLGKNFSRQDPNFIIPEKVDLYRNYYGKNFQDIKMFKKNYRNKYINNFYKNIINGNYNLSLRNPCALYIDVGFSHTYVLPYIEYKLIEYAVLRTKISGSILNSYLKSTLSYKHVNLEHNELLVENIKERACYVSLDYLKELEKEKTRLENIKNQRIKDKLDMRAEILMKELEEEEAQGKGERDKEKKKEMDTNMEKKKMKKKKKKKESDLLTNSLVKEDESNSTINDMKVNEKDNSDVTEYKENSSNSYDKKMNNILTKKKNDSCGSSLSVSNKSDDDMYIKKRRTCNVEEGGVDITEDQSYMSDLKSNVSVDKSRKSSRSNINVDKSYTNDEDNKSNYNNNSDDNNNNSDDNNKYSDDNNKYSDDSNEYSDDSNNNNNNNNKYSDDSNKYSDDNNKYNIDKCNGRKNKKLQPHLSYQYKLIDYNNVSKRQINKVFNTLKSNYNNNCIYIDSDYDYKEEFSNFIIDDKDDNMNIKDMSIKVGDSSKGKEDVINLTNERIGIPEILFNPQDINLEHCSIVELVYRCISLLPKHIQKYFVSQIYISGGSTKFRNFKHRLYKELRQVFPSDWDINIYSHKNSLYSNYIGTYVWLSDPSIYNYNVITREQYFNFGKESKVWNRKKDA

Results are given in words; binding and its absence hold for the method and conditions named. Binding seen in cells or lysates may run through a third protein. A result given as binding can be weak or reduced; the word gives no strength.

The target of this experiment is PfArp4-Ty1 (Plasmodium falciparum actin-related protein Arp4, Ty1x3-tagged) (P. falciparum 3D7) (UniProt Q8ILM5). As to the kind of experiment: co-IP; lysate of asynchronous PfArp4-Ty1::PfArp6-HA parasites (saponin-released, sonicated; 25 mM Tris-Cl pH 7.5, 100 mM KCl, 2 mM EDTA, 0.05% NP-40); magnetic beads conjugated with HA antibody, overnight at 4 °C; washed with IPP500 (500 mM NaCl); western blot with anti-PfAldolase, anti-HA and anti-Ty1; 3D7_G7 line as negative control.

For “PfArp6-HA (Plasmodium falciparum actin-related protein Arp6, HAx3-tagged) (from UniProt Q8IBQ9)”, the binding entry is recorded as “binds”.
